For the assay, the system named is nude mice, LX-1 lung xenograft intrarenal, tumor weight T/C. The assay is described as follows: NCI In Vivo Anticancer Drug Screen. Data for tumor model Human Lung LX-1 Xenograft (intrarenal inoculation) in NU/NU Swiss (nude) mice. The note with it: T/C endpoint: mean tumor weight change, higher T/C = larger tumour; for T/C: evaluated on day 11. In short, it runs like this: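 In vivo, transplantable tumor; compound vs vehicle arms; tumor size measured; value = T/C.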

[1] abbreviates: dose: 150.0 mg/kg/injection, schedule: Q04DX003 (sc), vehicle: saline.
Where [2] appears, read: dose: 100.0 mg/kg/injection, schedule: Q04DX003 (sc), vehicle: saline.
Setting [3] is: dose: 200.0 mg/kg/injection, schedule: Q04DX003 (sc), vehicle: saline.
Setting [4] is: dose: 37.5 mg/kg/injection, schedule: Q04DX003 (sc), vehicle: saline with Tween-80.
[5] abbreviates: dose: 150.0 mg/kg/injection, schedule: Q04DX003 (sc), vehicle: saline with Tween-80.
The mark [6] stands for this setting: dose: 300.0 mg/kg/injection, schedule: Q04DX003 (sc), vehicle: saline with Tween-80.
Setting [7] is: dose: 1200.0 mg/kg/injection, schedule: Q04DX003 (sc), vehicle: saline with Tween-80.
[8] abbreviates: dose: 600.0 mg/kg/injection, schedule: Q04DX003 (sc), vehicle: saline with Tween-80.

SMILES strings stand for the structures. The list is a part of this screen's results and no random one: it is rich in T/C values a quarter to a half above the control, in often repeated tests (any T/C) and in doses without a T/C. Other doses and runs of a compound stand elsewhere. T/C is the treated group as % of the vehicle group. Schedules are NCI's codes, read here as Q, the interval in days (D) or hours (H), X, the number of doses. Some T/C values carry the count of animals alive at the toxicity check (mostly the fifth day); where none is given, no animal had died by that day. Some entries were tested several times; their values stand side by side, smallest first. Some doses have a count of surviving animals in place of a T/C: the source holds a T/C of zero for them, seemingly a mark for toxic or unscored doses. Counts of survivors are from the toxicity check (mostly the fifth day) where no day follows; animals may have died later.

`CC(C)=CC(=O)OC1C2C(C)=CC(=O)C(O)C2(C)C2C3(O)OCC24C(CC(=O)OC14)C(C)C3O` (stereo unspecified): the survivor count is 0 of 3 on day 11 (dose: 5.0 mg/kg/injection, schedule: Q04DX003 (sc), vehicle: distilled water + Tween-80) and 0 of 2 on day 11 (dose: 10.0 mg/kg/injection, schedule: Q04DX003 (sc), vehicle: distilled water + Tween-80).

For the compound `CCCCC1CCCCCCc2[nH]c(/C=C3\N=C(c4ccc[nH]4)C=C3OC)cc21` (stereo unspecified), the survivor count (dose: 32.0 mg/kg/injection, schedule: Q04DX003 (sc), vehicle: saline with Tween-80) is 3 of 6 on day 11.

For `CCOC(=O)C1=C(C#N)C2(CCC(OCc3ccccc3)CC2)C(=O)O1` (stereo unspecified), the T/C (dose: 2400.0 mg/kg/injection, schedule: Q04DX003 (sc), vehicle: suspension in saline) was 131 % of control.

In the case of `[CH3][Sn]([CH3])([Cl])[S]CCN`, the survivor count under setting [1] is 0 of 6 on day 11.

In the case of `CC1(C)OC(=O)N(CO)C1=O`, the T/C (dose: 50.0 mg/kg/injection, schedule: Q01DX010 (sc), vehicle: saline) is 134 % of control.

As for `Cc1ccc(N)c(N)c1`, where the note is “dose: 1600.0 mg/kg/injection, schedule: Q04DX003 (sc), vehicle: saline with Tween-80”, the survivor count is given as 0 of 6 on day 11.

As to `O=C1CN(CN2CCOCC2)C(=O)CN1CN1CCOCC1`, the T/C was 140 % of control (dose: 25.0 mg/kg/injection, schedule: Q01DX010 (sc), vehicle: suspension in saline) and 126 % of control (dose: 100.0 mg/kg/injection, schedule: Q01DX010 (sc), vehicle: suspension in saline).

As to `COc1cc(Cc2nccc3cc(OC)c(OC)cc23)c(C(C)=O)c(OC)c1`, the survivor count (dose: 320.0 mg/kg/injection, schedule: Q01DX010 (sc), vehicle: saline) is 1 of 3 on day 11.

In the case of `COc1cccc2c1C(=O)c1c(O)c3c(c(O)c1C2=O)C[C@@](O)(/C(C)=N\O)C[C@@H]3OC1CC(N)C(O)C(C)O1` (stereo partly specified), the survivor count was 1 of 6 on day 11 under setting [2] and 0 of 6 on day 11 under setting [3].

For the compound `COC(=Nc1ccccc1)SSC(C)C`, for the setting “dose: 2400.0 mg/kg/injection, schedule: Q04DX003 (sc), vehicle: saline with Tween-80”, the survivor count is on record as 3 of 6 on day 11.

Consider `CCOC(=O)C(N)CSC(=O)NC` (stereo unspecified), for which the T/C runs as follows: under setting [2], 137 % of control; under setting [3], 128 % of control.

Turning to `COc1cc2c[n+](C)c3c4cc5c(cc4ccc3c2cc1OC)OCO5`, where the note is “dose: 400.0 mg/kg/injection, schedule: Q04DX003 (sc), vehicle: saline with Tween-80”, the T/C is 148 % of control.

On to `O=[n+]1c2ccccc2n([O-])c2ccccc21.[Cl][Ni][Cl]`, for which the T/C under setting [4] is 129 [5 of 6 alive on day 11] and 136 % of control [5 of 6 alive on day 11]. Also, the survivor count reads like this: under setting [5], 3 of 6 on day 11; under setting [6], 0 of 6 on day 11.

In the case of `O=C(O)c1c2c(nc3ccccc13)Cc1ccccc1-2`, the T/C (dose: 50.0 mg/kg/injection, schedule: Q01DX010 (sc), vehicle: water) is 147 % of control. In addition, the survivor count (dose: 400.0 mg/kg/injection, schedule: Q01DX010 (sc), vehicle: water) is 0 of 3 on day 11.

With `CNC=O`, the survivor count is given as 3 of 6 on day 11 (dose: 800.0 mg/kg/injection, schedule: Q01DX010 (sc), vehicle: saline) and 0 of 6 on day 11 (dose: 1600.0 mg/kg/injection, schedule: Q01DX010 (sc), vehicle: saline).

As for `Brc1ccc(C[N+]23CN4CN(CN(C4)C2)C3)cc1`, the survivor count under setting [7] is 1 of 6 on day 11.

As to `O=c1n(CC2CO2)c(=O)n(CC2CO2)n1CC1CO1` (stereo unspecified), the survivor count reads like this: (dose: 50.0 mg/kg/injection, schedule: Q04DX003 (sc), vehicle: saline) 2 of 6 on day 11; under setting [2], 0 of 6 on day 11.

As to `C1CN2CCC1CC2`, the survivor count runs as follows: under setting [4], 0 of 6 on day 11; (dose: 75.0 mg/kg/injection, schedule: Q04DX003 (sc), vehicle: saline with Tween-80) 0 of 6 on day 11; under setting [5], 0 of 6 on day 11; under setting [6], 0 of 6 on day 11; under setting [8], 0 of 6 on day 11.

Take `CN(C)CCCNc1c2ccccc2nc2cccc([N+](=O)[O-])c12`: the survivor count (dose: 3.0 mg/kg/injection, schedule: Q04DX003 (sc), vehicle: saline) is listed as 2 of 6 on day 11.

`C1OC1C1CO1` (stereo unspecified): the survivor count (dose: 100.0 mg/kg/injection, schedule: Q01DX010 (sc), vehicle: saline) is on record as 0 of 3 on day 11.

For `c1ccc2c(c1)nnn1c3cnccc3nc21`, the T/C (dose: 12.5 mg/kg/injection, schedule: Q01DX010 (sc), vehicle: saline with Tween-80) is 128 % of control and the T/C (dose: 25.0 mg/kg/injection, schedule: Q01DX010 (sc), vehicle: saline with Tween-80) was 127 % of control.

For `C=CCNc1nc2c(s1)CCc1cc(OC)c(OC)cc1-2`, the T/C under setting [6] was 128 % of control. Besides, the survivor count is reported as 3 of 6 on day 11 under setting [8] and 3 of 6 on day 11 under setting [7].

Take `O=[N+]([O-])c1nccn1CC(O)CO` (stereo unspecified): the T/C (dose: 300.0 mg/kg/injection, schedule: Q04DX003 (sc), vehicle: saline) was 133 % of control.

With `COc1cc2c(cc1O)N=C[C@@H]1CCC(O)N1C2=O` (mixture of isomers), the survivor count (dose: 16.0 mg/kg/injection, schedule: Q01DX010 (sc), vehicle: saline) is 3 of 6 on day 11; the survivor count (dose: 32.0 mg/kg/injection, schedule: Q01DX010 (sc), vehicle: saline) was 0 of 3 on day 11 and 0 of 6 on day 11.

Turning to `CCOC(=O)C(N)C[S][Sn]([CH3])([CH3])[Cl]` (stereo unspecified), the survivor count under setting [1] is 0 of 6 on day 11.

With `C[N+](C)(C)c1ncnc2nc[nH]c12`, the survivor count (dose: 400.0 mg/kg/injection, schedule: Q01DX010 (sc), vehicle: saline) is 0 of 3 on day 11.

`C=C1C(=O)C23[C@H](O)C1CC[C@H]2[C@]12COC3(O)[C@@H](O)[C@@H]1C(C)(C)CC[C@@H]2O`: the survivor count runs as follows: (dose: 75.0 mg/kg/injection, schedule: Q04DX003 (sc), vehicle: Klucel (hydroxypropylcellulose) (HPC)) 0 of 6 on day 11; (dose: 150.0 mg/kg/injection, schedule: Q04DX003 (sc), vehicle: Klucel (hydroxypropylcellulose) (HPC)) 0 of 6 on day 11.

Regarding `CNc1nc2c(N)ncnc2n1C1OC(CO)C(O)C1O` (stereo unspecified), under setting [3], the survivor count is reported as 0 of 6 on day 11.

Values taken from PubChem BioAssay AID264 (DTP/NCI, 2004).
